Measured values from article PMC13172542.
Results are given in words; binding and its absence hold for the method and conditions named. For some of these results: Binding calls can cover weak binding; strength is not graded here. For some of these results: Sequences can lack the tags named with a protein. For some of these results: Binding seen in cells or lysates may run through a third protein. One block for each molecule: values may come before it.

Experiments:
[1] = target: T1, AtMKIP1-YFP (yeast, without cTP) (Arabidopsis thaliana) (UniProt D2WL32); experiment: co-IP; anti-YFP IP (GFP-Trap) from soluble extracts of glycogen-deficient yeast co-expressing a YFP-tagged bait and an HA-tagged AtMatK form; 0.1 M MOPS pH 7.75, 1% Triton X-100, 4 °C; immunoblot
T1 sequence: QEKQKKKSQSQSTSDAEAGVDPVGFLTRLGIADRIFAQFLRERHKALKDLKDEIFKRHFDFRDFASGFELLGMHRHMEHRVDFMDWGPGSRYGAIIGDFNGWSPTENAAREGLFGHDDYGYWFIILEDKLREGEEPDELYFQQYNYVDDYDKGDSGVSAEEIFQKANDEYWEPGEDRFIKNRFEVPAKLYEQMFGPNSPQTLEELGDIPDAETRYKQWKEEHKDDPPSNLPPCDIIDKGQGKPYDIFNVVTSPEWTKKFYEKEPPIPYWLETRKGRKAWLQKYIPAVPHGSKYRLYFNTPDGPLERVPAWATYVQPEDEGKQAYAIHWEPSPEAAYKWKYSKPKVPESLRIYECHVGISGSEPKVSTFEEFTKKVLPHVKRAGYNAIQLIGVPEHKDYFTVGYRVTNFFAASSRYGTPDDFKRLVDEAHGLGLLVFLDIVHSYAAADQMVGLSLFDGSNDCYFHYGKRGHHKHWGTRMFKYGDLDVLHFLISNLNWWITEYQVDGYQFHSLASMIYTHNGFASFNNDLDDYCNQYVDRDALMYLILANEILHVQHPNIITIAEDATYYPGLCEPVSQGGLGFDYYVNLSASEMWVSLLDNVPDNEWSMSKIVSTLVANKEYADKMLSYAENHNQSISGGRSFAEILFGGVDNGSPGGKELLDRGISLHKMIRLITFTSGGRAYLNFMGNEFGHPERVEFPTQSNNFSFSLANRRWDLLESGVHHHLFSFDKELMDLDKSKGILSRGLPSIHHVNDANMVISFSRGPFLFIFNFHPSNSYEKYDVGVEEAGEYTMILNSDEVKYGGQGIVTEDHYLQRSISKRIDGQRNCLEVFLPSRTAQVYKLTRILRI

[2] = target: T2, NtMatK-HA (Nicotiana tabacum) (UniProt P12176); experiment: co-IP; anti-HA IP (magnetic beads) of each size-exclusion fraction of NtMatK C+ tobacco stroma; immunoblot
T2 sequence: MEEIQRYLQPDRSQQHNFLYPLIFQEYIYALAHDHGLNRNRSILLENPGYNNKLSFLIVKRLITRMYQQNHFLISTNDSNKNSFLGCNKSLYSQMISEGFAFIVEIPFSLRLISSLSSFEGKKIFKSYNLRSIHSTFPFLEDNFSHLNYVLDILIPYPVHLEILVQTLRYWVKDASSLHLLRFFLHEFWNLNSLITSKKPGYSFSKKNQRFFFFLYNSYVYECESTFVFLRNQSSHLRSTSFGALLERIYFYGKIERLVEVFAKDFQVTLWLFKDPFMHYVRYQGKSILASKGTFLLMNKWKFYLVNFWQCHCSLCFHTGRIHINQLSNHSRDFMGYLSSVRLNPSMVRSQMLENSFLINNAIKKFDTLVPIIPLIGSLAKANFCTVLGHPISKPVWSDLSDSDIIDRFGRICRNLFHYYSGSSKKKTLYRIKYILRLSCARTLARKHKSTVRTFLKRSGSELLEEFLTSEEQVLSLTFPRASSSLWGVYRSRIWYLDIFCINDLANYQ

[3] = target: T2, NtMatK-HA (Nicotiana tabacum); experiment: co-IP; anti-HA IP from soluble protein of 10-day-old NtMatK C+ tobacco seedlings (NtMatK C- as control), with or without RNase A/T1 during the incubation with beads; immunoblot
[4] = target: T2, NtMatK-HA (Nicotiana tabacum); experiment: SEC; chloroplast stromal extract of NtMatK C+ tobacco on Superose 6 Increase 10/300 in 50 mM HEPES-KOH pH 7.8, 1 mM MgCl2; fractions read by immunoblot, fractions 5 and 6 by MS/MS
[5] = target: C-terminal AtMatK-HA segment (AA 357-526) (Arabidopsis thaliana); experiment: co-IP; reciprocal: anti-HA IP (magnetic beads) from soluble extracts of yeast co-expressing an HA-tagged AtMatK bait and a YFP-tagged protein; immunoblot
[6] = target: N-terminal AtMatK-HA segment (AA 1-381) (Arabidopsis thaliana); experiment: as above
[7] = target: AtEMB3120-YFP (Arabidopsis thaliana); experiment: co-IP; anti-YFP IP (GFP-Trap) from soluble extracts of Arabidopsis lines expressing YFP-tagged baits, AtBE3-YFP as control; 50 mM Tris-HCl pH 8.0, 150 mM NaCl, 1% Triton X-100, 4 °C; immunoblot

Molecule: C-terminal AtMatK-HA segment (AA 357-526) (Arabidopsis thaliana) (domain or fragment)
binding [1]: no binding

Molecule: N-terminal AtMatK-HA segment (AA 1-381) (Arabidopsis thaliana) (domain or fragment)
binding [1]: binds

Molecule: NtMKIP1
binding [2]: binds | binding [3]: binds | binding [4]: binds

Molecule: NtValRS2
binding [2]: binds | binding [4]: binds

The remaining lines, values ahead:

binding [5]: no binding | binding [6]: binds
B1: AtMKIP1-YFP (yeast, without cTP) (protein, UniProt D2WL32 50-899)
chain: T1 sequence

binding [7]: binds
B2: AtMKIP1 (endogenous) (protein, UniProt D2WL32 50-899)
chain: T1 sequence
